Laboratory results reported in US20140315809A1, “CALCIMIMETICS AND METHODS FOR THEIR USE” (KAI PHARMACEUTICALS INC., priority 2011, published 2014).
Entries after “also recorded” stand apart in the source; their conditions may differ. At least one structure is not confirmed: it was looked up by name or label, or the drawing left a doubt.

How the values were obtained:
5/6 Nx rats = assay: Baseline PTH after 1-week washout in Nx rats; assay type: in vivo, rat; conditions: 3 mg/kg SC on days 1, 3, 6 and 8, then 1 week washout
[1] = system: 5/6 nephrectomy (Nx) rat model of renal insufficiency; assay: Renal function (serum creatinine) in 5/6 Nx rats; assay type: in vivo
[2] = system: patients diagnosed with CKD-BMD and SHPT receiving hemodialysis; assay: Single-dose clinical study: corrected calcium; assay type: in vivo, human
Experimental: A clinical study was performed to assess the safety and tolerability of rising single doses of Ac-c(C)arrrar-NH2 (SEQ ID NO:3), administered by IV bolus to patients diagnosed with CKD-BMD and SHPT, and who were receiving hemodialysis. Data were generated to measure changes in patient serum intact PTH (iPTH) and serum calcium as well as bioavailability of the single dose of Ac-c(C)arrrar-NH2 (SEQ ID NO:3).
A double-blind, randomized, placebo-controlled, multicenter study in subjects receiving thrice-weekly hemodialysis (HD) was designed and carried out. The major inclusion criteria included hemodialysis for at least 3 months prior to the start of the study, a serum iPTH level greater than 300 pg/mL, a serum cCa (corrected calcium) level greater than or equal to 9.0 mg/dL and receiving of stable doses of active vitamin D or analogs, phosphate binders, and calcium supplements. […]
Serum iPTH levels were determined using the electrochemiluminescence immunoassay (ECLIA) on the Roche Elecsys® analyzer. Calcium levels were adjusted for albumin <4 g/dL with the following equation: cCa=[measured Ca in mg/dL]+[4-(albumin in g/dL)]×0.8
The effects of Ac-c(C)arrrar-NH2 (SEQ ID NO:3) administration on serum iPTH and corrected calcium levels was also determined in this study. […] Blood from each subject was then analyzed to determine levels of iPTH and corrected calcium. […]

[3] = system: 5/6 nephrectomy (Nx) rat model of renal insufficiency; assay: Parathyroid gland hyperplasia (BrdU, gland weight) in 5/6 Nx rats; assay type: in vivo
[4] = system: patients diagnosed with CKD-BMD and SHPT receiving hemodialysis; assay: Single-dose clinical study: serum iPTH; assay type: in vivo, human; conditions: single IV bolus
Hemodialysis patients = assay: Repeated-dose clinical trial: serum iPTH at drug trough; assay type: in vivo, human; conditions: 10 mg 3 times per week for 4 weeks
FGFR1 = assay: Receptor expression in parathyroid gland sections of 5/6 Nx rats: FGFR1; assay type: in vivo, rat; conditions: 3 mg/kg SC thrice-weekly for 6 weeks, antibody staining
Vitamin D receptor = assay: Receptor expression in parathyroid gland sections of 5/6 Nx rats: Vitamin D receptor; assay type: in vivo, rat; conditions: 3 mg/kg SC thrice-weekly for 6 weeks, antibody staining
[5] = system: 5/6 nephrectomy (Nx) rat model of renal insufficiency; assay: PTH suppression in 5/6 Nx rats, daily dosing for 28 days; assay type: in vivo; conditions: for decrease in serum PTH lower than baseline: 1 mg/kg IV daily for 28 days; for PTH levels (in words): daily 28 days, Ac-c(C)arrrar-NH2 1 mg/kg IV, cinacalcet 10 mg/kg PO
Experimental: The therapeutic efficacy of Ac-c(C)arrrar-NH2 (SEQ ID NO:3) was assessed using the 5/6 nephrectomy (Nx) rat model of renal insufficiency. The 5/6 Nx male rats were obtained from Charles River Laboratories (Wilmington, Mass.). These rats have undergone surgical removal of one kidney and ⅔ of the other kidney and were fed a high-phosphate diet. All experimental procedures with animals were performed according to IACUC guidelines. Statistical analysis was performed using one-way ANOVA with Bonferroni post test. All p-values are nominal.
Tail vein blood samples were taken periodically for measurement of PTH. PTH was measured using the Immutopics BioActive Intact ELISA (Cat #60-2700; Immutopics, San Clemente, Calif.).

[6] = 3 mg/kg SC thrice-weekly for 6 weeks, relative to untreated controls

CC(=O)N[C@H](CSSC[C@H](N)C(=O)O)C(=O)N[C@H](C)C(=O)N[C@H](CCCNC(=N)N)C(=O)N[C@H](CCCNC(=N)N)C(=O)N[C@H](CCCNC(=N)N)C(=O)N[C@H](C)C(=O)N[C@H](CCCNC(=N)N)C(N)=O [Ac-c(C)arrrar-NH2]
reduction in baseline PTH after the 1-week washout (5/6 Nx rats): 50% | serum creatinine levels after week 2, versus vehicle ([1]; 5/6 Nx rats, 0.3 mg/kg and 1 mg/kg SC 3 times weekly, six weeks): increase in creatinine levels which was less than that observed in the vehicle-treated animals | serum creatinine levels in week 2 ([1]; 5/6 Nx rats, 0.3 mg/kg and 1 mg/kg SC 3 times weekly, week 2): decreased levels of serum creatinine | serum creatinine levels ([1]; 5/6 Nx rats, 3 mg/kg SC 3 times weekly, six weeks): decrease in creatinine levels | elevation in serum creatinine over the six-week study ([1]; 5/6 Nx rats, 0.3, 1 or 3 mg/kg SC thrice-weekly for 6 weeks, versus vehicle): suppressed in a dose-dependent manner | change over time in mean corrected calcium ([2]; single IV bolus 5 mg group): no apparent changes | reduction of mean corrected calcium during the observation period ([2]; single IV bolus 10 mg, 20 mg, 40 mg or 60 mg groups): 10-14% | parathyroid gland hyperplasia ([3]; 3 mg/kg SC): dramatic reduction | BrdU-positive cells in parathyroid glands [3, 6]: fewer BrdU-positive cells | parathyroid gland weight [3, 6]: reduced | time to iPTH decrease after dosing ([4]; 5-60 mg): ≤ 30 min | change in serum iPTH ([4]; all doses (5, 10, 20, 40, 60 mg), 2-4 hours after hemodialysis): dose-dependent decreases | duration of iPTH suppression ([4]; doses greater than or equal to 20 mg): sustained reductions through the 3-day interdialytic period | serum iPTH levels at drug trough over the 4-week period (Hemodialysis patients): steadily decreased | FGFR1 level in parathyroid glands (FGFR1): increased expression; also recorded: Higher levels | Vitamin D receptor level in parathyroid glands (Vitamin D receptor): increased expression; also recorded: Higher levels | decrease in serum PTH lower than baseline ([5]; 6 hours after the last dosing): greater than 50% | decrease in serum PTH lower than baseline ([5]; 16 hours after the last dosing): greater than 50% | PTH levels (in words) ([5]; 6 hours after the last dosing): reduced | PTH levels (in words) ([5]; 16 hours after the last dosing): remained suppressed | PTH levels (in words) ([5]; 48 hours after the last dosing): remained suppressed
